Data published in US12076444B2, “Methods and systems for depositing active ingredients on substrates” (Purdue Research Foundation, priority 2015, dated 2024).
Like-named read-outs stand apart in the source and are kept apart here.

Chemical stability under production (HPLC) (naproxen-PEG 3350 dosage forms subjected to 70° C. for 15 min): stable | Chemical stability under production (HPLC) (naproxen-Pluronic F38 dosage forms subjected to 70° C. for 15 min): stable
SMILES: COc1ccc2cc([C@H](C)C(=O)O)ccc2c1 [naproxen]
